The target of the assay is second bromodomain of Brd2 (Brd2 BD2), His-tagged (human). The assay can be described thus: NMR titration; 15N-labelled Brd2 BD2 or mutant (0.2-1.0 mM) titrated with peptide (stocks 55-100 mM); 1H-15N HSQC at 298 K; 50 mM phosphate pH 5.8, 50 mM NaCl, 1 mM DTT, 1 mM EDTA; both purified.

Results are given in words; binding and its absence hold for the method and conditions named. Where a sequence is shown, tags or fusion partners need not be part of it.

This passage reports binding results from paper PMC2065866.

B1: H2B-AcK5 peptide (residues 1-12 of histone H2B, acetylated at Lys 5) (peptide)
peptide: SDPAKSAPAPKK
modifications: N-epsilon-acetyl-lysine at Lys 5
B1: the binding result was “no binding”.
